Source: patent EP4786496A1
These are yes or no findings as the source states them, for the method shown. Some entries that bind do so weakly or less than the wild type.

By UniProt entry, the sequences of proteins in these tests, tags left out. Where a name states a change or a piece, a line headed by the entry shows the natural chain unless it says otherwise.
UniProt Q96RJ3: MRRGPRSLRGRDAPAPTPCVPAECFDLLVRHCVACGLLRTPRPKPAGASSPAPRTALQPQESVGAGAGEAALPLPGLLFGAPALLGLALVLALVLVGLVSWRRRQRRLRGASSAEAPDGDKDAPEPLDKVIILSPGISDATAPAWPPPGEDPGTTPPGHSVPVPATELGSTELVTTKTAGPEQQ

How the values were obtained:
[1] = molecular target: ACRO-BAFF-R-Fc (Acro-human BAFF-R Protein,his tag; ACRObiosystem BAFF-R-H52H5) (human) (UniProt Q96RJ3); experiment: phage ELISA
[2] = molecular target: Recombinant biotinylated Human BAFF-R Protein (KACTUS, BAFF-R-HM401) (human) (UniProt Q96RJ3); experiment: phage ELISA

B1: Clone 1 (monoclonal phage antibody) (scFv, V domains shown)
VH: EVQLVESGAEVKKPGASVKVSCKASGYTFTSYGISWVRQAPGQGLEWMGWISAYNGNTNYAQKLQGRVTMTTDTSTSTAYMELRSLRSDDTAVYYCARNTYYYDSSGYPNDAFDIWGQGTTVTVSS
VL: DIQMTQSPSSLSASVGDRVTITCRASQKISSYLNWYQQKPGKAPKLLIYAASSLQSGVPSRFSGSGSGADFTLTISSLQPEDFATYYCQQSYSPPTTFGGGTKVDIKR
B1 was tested, and the binding [1] was “binds” and the binding [2] was “binds”.
